We go through 1 compound from PMC4140284, “Human UTY(KDM6C) Is a Male-specific N^ϵ-Methyl Lysyl Demethylase” (The Journal of Biological Chemistry, 2014).

In this series the test system is UTY(KDM6C). Description: Crystal structure of UTY(KDM6C) complexes. Format: binding, human. The conditions noted are these: PDB 3ZPO.

For `O=C(O)CCNc1cc(N2CCc3ccccc3CC2)nc(-c2ccccn2)n1` [GSK-J1], under “2.0 Å, compared with KDM6B·GSK-J1 complex”, the “binding mode in crystal structure” value was “bound to the 2OG binding site identically within error to that observed with KDM6B·GSK-J1 complex”. For the same compound, under “away from the HXE … H triad”, the “translocation of active site iron” value is recorded as approximately 2.4 Å.
